## Assay results

Source: PubChem BioAssay AID504749 (NCATS, 2011).

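Malaria parasite (P. falciparum) lines kept in red blood cells; parasite DNA is measured by SYBR Green fluorescence after lysis, 72 h after compound addition.
Each compound was titrated across a series from about 0.000037 to 29 µM.
The number is the fitted AC50, the concentration giving a half-maximal change in signal; a lower value means higher potency, whether the curve shows a decrease or an increase.
Calls follow the curve class and fit quality: every row here is inconclusive, covering signal-raising curves and weak, poorly fitted, partial or highest-dose-only inhibition curves.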

Values are in µM.
All entries here are filed as inconclusive.
Only part of the assay is shown, chiefly results filed as inconclusive.
Potencies fitted to partial, single-point or poorly fitting curves are rough.
Some entries filed as inconclusive have a full curve.

compound,condition,Potency (µM),curve
CCC1OC(=O)C[C@@H](O)[C@H](C)[C@@H](OC2OC(C)CC(N(C)C)C2O)[C@@H](CC=O)C[C@@H](C)C(=O)/C=C/[C@]2(C)OC2C1C (stereo not given in full),CP315,7.569,"inhibitor, partial curve"
CCC1OC(=O)C[C@@H](O)[C@H](C)[C@@H](OC2OC(C)CC(N(C)C)C2O)[C@@H](CC=O)C[C@@H](C)C(=O)/C=C/[C@]2(C)OC2C1C (stereo not given in full),CP201,3.793,"inhibitor, partial curve"
CCC1OC(=O)C[C@@H](O)[C@H](C)[C@@H](OC2OC(C)CC(N(C)C)C2O)[C@@H](CC=O)C[C@@H](C)C(=O)/C=C/[C@]2(C)OC2C1C (stereo not given in full),CP203,4.776,"inhibitor, partial curve, poor fit"
CCC1OC(=O)C[C@@H](O)[C@H](C)[C@@H](OC2OC(C)CC(N(C)C)C2O)[C@@H](CC=O)C[C@@H](C)C(=O)/C=C/[C@]2(C)OC2C1C (stereo not given in full),CP269,2.686,"inhibitor, partial curve"
CCC1OC(=O)C[C@@H](O)[C@H](C)[C@@H](OC2OC(C)CC(N(C)C)C2O)[C@@H](CC=O)C[C@@H](C)C(=O)/C=C/[C@]2(C)OC2C1C (stereo not given in full),CP325,0.9528,"inhibitor, full curve"
CCC1OC(=O)C[C@@H](O)[C@H](C)[C@@H](OC2OC(C)CC(N(C)C)C2O)[C@@H](CC=O)C[C@@H](C)C(=O)/C=C/[C@]2(C)OC2C1C (stereo not given in full),CP305,1.2,"inhibitor, full curve"
CCC1OC(=O)C[C@@H](O)[C@H](C)[C@@H](OC2OC(C)CC(N(C)C)C2O)[C@@H](CC=O)C[C@@H](C)C(=O)/C=C/[C@]2(C)OC2C1C (stereo not given in full),TAB165,5.623,"inhibitor, partial curve"
CCC1OC(=O)C[C@@H](O)[C@H](C)[C@@H](OC2OC(C)CC(N(C)C)C2O)[C@@H](CC=O)C[C@@H](C)C(=O)/C=C/[C@]2(C)OC2C1C (stereo not given in full),DIV17,9.528,"inhibitor, partial curve"
CCC1OC(=O)C[C@@H](O)[C@H](C)[C@@H](OC2OC(C)CC(N(C)C)C2O)[C@@H](CC=O)C[C@@H](C)C(=O)/C=C/[C@]2(C)OC2C1C (stereo not given in full),AS120,2.818,"inhibitor, partial curve"
CCC1OC(=O)C[C@@H](O)[C@H](C)[C@@H](OC2OC(C)CC(N(C)C)C2O)[C@@H](CC=O)C[C@@H](C)C(=O)/C=C/[C@]2(C)OC2C1C (stereo not given in full),CP238,2.818,"inhibitor, partial curve"
CCC1OC(=O)C[C@@H](O)[C@H](C)[C@@H](OC2OC(C)CC(N(C)C)C2O)[C@@H](CC=O)C[C@@H](C)C(=O)/C=C/[C@]2(C)OC2C1C (stereo not given in full),GB4,8.492,"inhibitor, partial curve"
CCC1OC(=O)C[C@@H](O)[C@H](C)[C@@H](OC2OC(C)CC(N(C)C)C2O)[C@@H](CC=O)C[C@@H](C)C(=O)/C=C/[C@]2(C)OC2C1C (stereo not given in full),AA1029,0.8913,"inhibitor, full curve"
CCC1OC(=O)C[C@@H](O)[C@H](C)[C@@H](OC2OC(C)CC(N(C)C)C2O)[C@@H](CC=O)C[C@@H](C)C(=O)/C=C/[C@]2(C)OC2C1C (stereo not given in full),3D7,11.22,"inhibitor, partial curve"
CCC1OC(=O)C[C@@H](O)[C@H](C)[C@@H](OC2OC(C)CC(N(C)C)C2O)[C@@H](CC=O)C[C@@H](C)C(=O)/C=C/[C@]2(C)OC2C1C (stereo not given in full),SC27B,3.162,"inhibitor, full curve, poor fit"
CCC1OC(=O)C[C@@H](O)[C@H](C)[C@@H](OC2OC(C)CC(N(C)C)C2O)[C@@H](CC=O)C[C@@H](C)C(=O)/C=C/[C@]2(C)OC2C1C (stereo not given in full),CP329,2.686,"inhibitor, full curve, poor fit"
CCC1OC(=O)C[C@@H](O)[C@H](C)[C@@H](OC2OC(C)CC(N(C)C)C2O)[C@@H](CC=O)C[C@@H](C)C(=O)/C=C/[C@]2(C)OC2C1C (stereo not given in full),HB3,5.623,"inhibitor, partial curve"
CCC1OC(=O)C[C@@H](O)[C@H](C)[C@@H](OC2OC(C)CC(N(C)C)C2O)[C@@H](CC=O)C[C@@H](C)C(=O)/C=C/[C@]2(C)OC2C1C (stereo not given in full),CP268,1.2,"inhibitor, full curve"
O=C1C=C2C=CC3C[C@@]2(O1)C1CCCCN31 (stereo not given in full),CP201,15.1,"inhibitor, partial curve"
O=C1C=C2C=CC3C[C@@]2(O1)C1CCCCN31 (stereo not given in full),GB4,12,"inhibitor, partial curve, poor fit"
O=C1C=C2C=CC3C[C@@]2(O1)C1CCCCN31 (stereo not given in full),CP194,15.1,"inhibitor, single point"
O=C1C=C2C=CC3C[C@@]2(O1)C1CCCCN31 (stereo not given in full),SC27B,11.22,"inhibitor, single point"
O=C1C=C2C=CC3C[C@@]2(O1)C1CCCCN31 (stereo not given in full),CP305,9.528,"inhibitor, partial curve, poor fit"
O=C1C=C2C=CC3C[C@@]2(O1)C1CCCCN31 (stereo not given in full),CP192,13.46,"inhibitor, single point"
O=C1C=C2C=CC3C[C@@]2(O1)C1CCCCN31 (stereo not given in full),CP291,16.94,"inhibitor, single point"
O=C1C=C2C=CC3C[C@@]2(O1)C1CCCCN31 (stereo not given in full),PC15,11.22,"inhibitor, single point"
O=C1C=C2C=CC3C[C@@]2(O1)C1CCCCN31 (stereo not given in full),PC26,16.94,"inhibitor, single point"
O=C1C=C2C=CC3C[C@@]2(O1)C1CCCCN31 (stereo not given in full),CP185,12.59,"inhibitor, partial curve, poor fit"
O=C1C=C2C=CC3C[C@@]2(O1)C1CCCCN31 (stereo not given in full),CP265,11.22,"inhibitor, single point"
O=C1C=C2C=CC3C[C@@]2(O1)C1CCCCN31 (stereo not given in full),CP203,15.1,"inhibitor, single point"
O=C1C=C2C=CC3C[C@@]2(O1)C1CCCCN31 (stereo not given in full),CP335,15.1,"inhibitor, single point"
O=C1C=C2C=CC3C[C@@]2(O1)C1CCCCN31 (stereo not given in full),CP268,16.94,"inhibitor, partial curve, poor fit"
O=C1C=C2C=CC3C[C@@]2(O1)C1CCCCN31 (stereo not given in full),CP329,16.94,"inhibitor, single point"
O=C1C=C2C=CC3C[C@@]2(O1)C1CCCCN31 (stereo not given in full),JCK,11.22,"inhibitor, single point"
O=C1C=C2C=CC3C[C@@]2(O1)C1CCCCN31 (stereo not given in full),FAB9,10,"inhibitor, single point"
O=C1C=C2C=CC3C[C@@]2(O1)C1CCCCN31 (stereo not given in full),CP325,13.46,"inhibitor, single point"
CNCCCCOc1ccccc1Cc1ccccc1,ATS95,7.943,"inhibitor, partial curve"
CNCCCCOc1ccccc1Cc1ccccc1,CP237,1.413,"inhibitor, full curve"
CNCCCCOc1ccccc1Cc1ccccc1,CP191,17.78,"inhibitor, single point"
CNCCCCOc1ccccc1Cc1ccccc1,CP256,3.981,"inhibitor, partial curve"
CNCCCCOc1ccccc1Cc1ccccc1,PC15,4.467,"inhibitor, partial curve"
CNCCCCOc1ccccc1Cc1ccccc1,SC27B,11.22,"inhibitor, partial curve"
CNCCCCOc1ccccc1Cc1ccccc1,CP291,6.012,"inhibitor, partial curve"
CNCCCCOc1ccccc1Cc1ccccc1,PAD,11.22,"inhibitor, single point"
CNCCCCOc1ccccc1Cc1ccccc1,C2A,7.08,"inhibitor, partial curve, poor fit"

The first 4 entries again:

compound	condition	Potency (µM)	curve
CCC1OC(=O)C[C@@H](O)[C@H](C)[C@@H](OC2OC(C)CC(N(C)C)C2O)[C@@H](CC=O)C[C@@H](C)C(=O)/C=C/[C@]2(C)OC2C1C (stereo not given in full)	CP315	7.569	inhibitor, partial curve
CCC1OC(=O)C[C@@H](O)[C@H](C)[C@@H](OC2OC(C)CC(N(C)C)C2O)[C@@H](CC=O)C[C@@H](C)C(=O)/C=C/[C@]2(C)OC2C1C (stereo not given in full)	CP201	3.793	inhibitor, partial curve
CCC1OC(=O)C[C@@H](O)[C@H](C)[C@@H](OC2OC(C)CC(N(C)C)C2O)[C@@H](CC=O)C[C@@H](C)C(=O)/C=C/[C@]2(C)OC2C1C (stereo not given in full)	CP203	4.776	inhibitor, partial curve, poor fit
CCC1OC(=O)C[C@@H](O)[C@H](C)[C@@H](OC2OC(C)CC(N(C)C)C2O)[C@@H](CC=O)C[C@@H](C)C(=O)/C=C/[C@]2(C)OC2C1C (stereo not given in full)	CP269	2.686	inhibitor, partial curve